This is one part of the list. These are raw signals, not scaled to a control.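 Primary screen: polymyxin B was added at a level permeabilizing Salmonella outer membranes while sparing inner membranes. DMSO wells, both with and without polymyxin B, established maximum growth. Plate-to-plate variation meant each plate was ranked on its own, and the lowest-OD600 compounds were selected as hits.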
Test system: Salmonella enterica serovar Typhimurium SL1344
Assay: bacterial growth OD600 after 18 h with compound and polymyxin B; higher = more bacterial growth (less inhibition)
Conditions: 50 µM, Mueller-Hinton broth

Structure (SMILES): CCC1CN(CCNC(=O)CC2NC(=O)c3ccccc32)Cc2cc(OC)ccc2O1 (centres undefined)
- bacterial growth OD600 (polymyxin B 0.75 µg/mL): 0.918

Structure (SMILES): C=CCOc1ccccc1CN1CCC(C(Cc2ccccc2)N(CC)C(=O)C2CCOCC2)CC1 (centres undefined)
- bacterial growth OD600 (polymyxin B 0.75 µg/mL): 0.941

Structure (SMILES): O=C(C1CCN(c2nc(-c3ccccc3)nc3c2CCC3)CC1)N1CCC(O)CC1
- bacterial growth OD600 (polymyxin B 1 µg/mL): 0.802

Structure (SMILES): OC1CCCN(c2ccc(-c3nc(Cc4ccc(F)cc4)no3)cn2)C1 (centres undefined)
- bacterial growth OD600 (polymyxin B 0.75 µg/mL): 0.512

Structure (SMILES): COCCN1CCN(C(=O)CC(c2ccccc2)c2ccccc2Cl)CC1 (centres undefined)
- bacterial growth OD600 (polymyxin B 1 µg/mL): 0.83

Structure (SMILES): CC(C)S(=O)(=O)N1CCC(C2CCN(Cc3cccnc3)CC2)C1 (centres undefined)
- bacterial growth OD600 (polymyxin B 0.75 µg/mL): 0.801

Structure (SMILES): CCOC(=O)C1(Cc2ccccc2F)CCCN(C(=O)c2csc(C(C)=O)c2)C1 (centres undefined)
- bacterial growth OD600 (polymyxin B 1 µg/mL): 0.826

Structure (SMILES): CCCC1(C2CCN(C(=O)C3=CCCC3)CC2)NC(=O)N(CCc2ccccn2)C1=O (centres undefined)
- bacterial growth OD600 (polymyxin B 0.75 µg/mL): 0.965

Structure (SMILES): CCOC(=O)N1CCN(c2ccc(-c3nc(C4CC4)no3)cn2)CC1
- bacterial growth OD600 (polymyxin B 0.75 µg/mL): 0.475

Structure (SMILES): Cc1ccccc1CC1(CO)CCCN(Cc2ccccc2Cl)C1 (centres undefined)
- bacterial growth OD600 (polymyxin B 1 µg/mL): 0.026

Structure (SMILES): CN(C)CCNC(=O)c1ccc(OC2CCN(C(=O)CCC3(C)CC3)CC2)c(Cl)c1
- bacterial growth OD600 (polymyxin B 0.75 µg/mL): 0.8

Structure (SMILES): CC1(C)CC(Nc2nc3nonc3nc2NCc2cccs2)CCO1 (centres undefined)
- bacterial growth OD600 (polymyxin B 1 µg/mL): 0.882

Structure (SMILES): CC(=O)N1CCC(N2CCCC(CCc3cccc(C(F)(F)F)c3)C2)CC1 (centres undefined)
- bacterial growth OD600 (polymyxin B 0.75 µg/mL): 0.798

Structure (SMILES): CCOC(=O)N1CCC(NC2CCN(c3ccc(NC(=O)Cc4cccc(F)c4)cc3)CC2)CC1
- bacterial growth OD600 (polymyxin B 0.75 µg/mL): 0.918

Structure (SMILES): COc1cc(OC)c2nc(-c3cc4c(c(OC)c3)OCCN(C(=O)Cc3cc(OC)c(OC)c(OC)c3)C4)cc(C)c2c1
- bacterial growth OD600 (polymyxin B 0.75 µg/mL): 0.862

Structure (SMILES): CCCCNCc1ccc(OCC(O)CN2CCSCC2)c(OC)c1 (centres undefined)
- bacterial growth OD600 (polymyxin B 1 µg/mL): 0.98

Structure (SMILES): O=C(c1cnc[nH]1)N1CCC2(CCCN(CCC3CCCCC3)C2)C1 (centres undefined)
- bacterial growth OD600 (polymyxin B 1 µg/mL): 1.03

Structure (SMILES): COc1ccccc1CCN1CCC(CN(C)C(=O)c2ccc(F)cc2F)CC1
- bacterial growth OD600 (polymyxin B 1 µg/mL): 1.24

Structure (SMILES): c1ccc(-c2ncc3c(n2)CCCC3NCc2c[nH]cn2)cc1 (centres undefined)
- bacterial growth OD600 (polymyxin B 0.75 µg/mL): 0.957

Structure (SMILES): COc1ccc(C(=O)C2CCCN(C(=O)c3ccc(C)c(C)c3)C2)cc1OC (centres undefined)
- bacterial growth OD600 (polymyxin B 1 µg/mL): 0.913

Structure (SMILES): Cc1ccc(CN2CCC(CN(C)Cc3cnc(-c4ccccc4)s3)CC2)o1
- bacterial growth OD600 (polymyxin B 0.75 µg/mL): 0.75

Structure (SMILES): COc1cc(OC)c(OC)cc1CN1CC[C@@H](N2CCC(O)CC2)[C@H](O)C1
- bacterial growth OD600 (polymyxin B 0.75 µg/mL): 0.769

Structure (SMILES): CC(c1nccs1)N(C)Cc1cn(Cc2ccccc2)nc1-c1ccc2c(c1)OCO2 (centres undefined)
- bacterial growth OD600 (polymyxin B 1 µg/mL): 0.398

Structure (SMILES): O=C(CCC1CCCN(Cc2ccccc2OC(F)F)C1)N1CCOCC1 (centres undefined)
- bacterial growth OD600 (polymyxin B 1 µg/mL): 0.973

Structure (SMILES): O=C(NC1CCCCC1)C1CCCN(C2CCN(C(=O)C3CC3)CC2)C1 (centres undefined)
- bacterial growth OD600 (polymyxin B 0.75 µg/mL): 0.849

Structure (SMILES): COc1ccccc1CCN1CCC(CN(C)C(=O)Cc2cccs2)CC1
- bacterial growth OD600 (polymyxin B 1 µg/mL): 0.943

Structure (SMILES): CCC(CC)CN1CCC2(CC1)c1ccccc1[C@@H](NC(=O)Cc1cccs1)[C@@H]2OC
- bacterial growth OD600 (polymyxin B 0.75 µg/mL): 0.764

Structure (SMILES): O=C1O[C@@H]2CN(S(=O)(=O)N3CCCCC3)C[C@@H]2N1CCc1ccccn1
- bacterial growth OD600 (polymyxin B 0.75 µg/mL): 0.804

Structure (SMILES): CCOC(=O)C1(CCOc2ccccc2)CCCN(C(=O)/C=C/c2cnn(C)c2)C1 (centres undefined)
- bacterial growth OD600 (polymyxin B 1 µg/mL): 0.738
